Measurements taken from patent publication US20150086553A1 (SAMSUNG ELECTRONICS, published 2015).
Results are given in words; binding and its absence hold for the method and conditions named. Some binding calls cover weakened binding; strength is not graded here.

What was measured:
[1] = biological target: T1, full-length Annexin A1 protein (346 amino acids; Accession No. NP-000691.1) (human) (UniProt P04083); assay: scFv selected by ELISA on plate-coated full-length Annexin A1, anti-HA-HRP detection
T1 sequence: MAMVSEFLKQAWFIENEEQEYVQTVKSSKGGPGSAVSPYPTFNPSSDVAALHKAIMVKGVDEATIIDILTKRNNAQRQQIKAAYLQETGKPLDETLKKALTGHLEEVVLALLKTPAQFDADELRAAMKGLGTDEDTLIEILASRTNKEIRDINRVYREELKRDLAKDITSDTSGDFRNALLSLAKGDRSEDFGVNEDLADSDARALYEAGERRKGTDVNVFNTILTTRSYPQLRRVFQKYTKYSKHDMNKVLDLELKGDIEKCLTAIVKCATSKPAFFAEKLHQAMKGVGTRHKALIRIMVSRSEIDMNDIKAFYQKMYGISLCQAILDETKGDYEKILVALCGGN

[2] = biological target: T2, Annexin A1 on cancer cells (SNU1, MDA-MB-231) (UniProt P04083); assay: cell-based ELISA on SNU1 and MDA-MB-231 cells, 250/125/25 ng scFv per well, anti-HA-HRP
T2 sequence (looked up): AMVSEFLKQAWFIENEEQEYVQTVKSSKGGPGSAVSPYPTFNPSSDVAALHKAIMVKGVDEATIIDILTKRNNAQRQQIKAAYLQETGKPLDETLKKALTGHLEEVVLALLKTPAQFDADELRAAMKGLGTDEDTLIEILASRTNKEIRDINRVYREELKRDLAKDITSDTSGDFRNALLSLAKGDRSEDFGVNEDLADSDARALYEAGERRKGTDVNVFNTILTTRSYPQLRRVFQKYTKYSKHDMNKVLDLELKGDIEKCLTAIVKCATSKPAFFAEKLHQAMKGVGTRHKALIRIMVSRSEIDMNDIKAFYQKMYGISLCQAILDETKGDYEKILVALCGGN

[3] = biological target: T1, full-length Annexin A1 protein (346 amino acids; Accession No. NP-000691.1) (human); assay: scFv selected by ELISA on plate-coated full-length Annexin A1

Measured: binding

B1: scFv F2 (scFv)
scFv: EVQLLESGGGLVQPGGSLRLSCAASGFTFSNYSMSWVRQAPGKGLEWVSGISSDGGNKYYADSVKGRFTISRDNSKNTLYLQMNSLRAEDTAVYYCARRAIPFDYWGQGTLVTVSSGGGGSGGGGSGGGGSQSVLTHPPSASGTPGQRVTISCTGSSSNIGSNAVSWYQQLPGTAPKLLIYYNSQRPSGVPDRFSGSKSGTSASLAISGLRSEDEADYYCGAWDDSLNAYVFGGGTKLTVLG
binds: all assays above
